# Reference: the supplement of paper PMC10849652
# Sequences of proteins named here, by UniProt entry; tags and fusion partners are left off. A change or cut given only in a name is not applied to a line headed by its entry.
# UniProt P09105: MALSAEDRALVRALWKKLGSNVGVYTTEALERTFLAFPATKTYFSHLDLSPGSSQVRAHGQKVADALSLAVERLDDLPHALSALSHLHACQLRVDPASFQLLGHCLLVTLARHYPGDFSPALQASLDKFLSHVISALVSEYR
# UniProt Q969F1: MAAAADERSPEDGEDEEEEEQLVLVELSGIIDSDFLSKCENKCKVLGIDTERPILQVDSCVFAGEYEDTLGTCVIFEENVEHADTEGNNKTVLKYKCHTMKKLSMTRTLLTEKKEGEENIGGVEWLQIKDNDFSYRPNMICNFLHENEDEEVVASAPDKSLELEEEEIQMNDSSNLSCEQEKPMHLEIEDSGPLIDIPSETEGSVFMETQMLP
# UniProt P49841: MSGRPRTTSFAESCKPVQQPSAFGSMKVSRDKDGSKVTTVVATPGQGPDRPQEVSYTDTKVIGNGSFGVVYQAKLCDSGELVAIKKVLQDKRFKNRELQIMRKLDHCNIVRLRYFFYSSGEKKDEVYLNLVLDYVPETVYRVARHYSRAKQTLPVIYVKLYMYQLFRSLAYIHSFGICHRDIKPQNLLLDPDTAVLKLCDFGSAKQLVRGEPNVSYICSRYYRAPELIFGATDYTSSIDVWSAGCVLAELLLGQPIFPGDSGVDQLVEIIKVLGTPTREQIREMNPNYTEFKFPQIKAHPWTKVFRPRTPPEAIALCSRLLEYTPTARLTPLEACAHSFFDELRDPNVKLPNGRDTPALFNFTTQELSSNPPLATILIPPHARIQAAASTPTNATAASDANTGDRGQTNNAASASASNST
# UniProt Q13547, whole entry, looked up: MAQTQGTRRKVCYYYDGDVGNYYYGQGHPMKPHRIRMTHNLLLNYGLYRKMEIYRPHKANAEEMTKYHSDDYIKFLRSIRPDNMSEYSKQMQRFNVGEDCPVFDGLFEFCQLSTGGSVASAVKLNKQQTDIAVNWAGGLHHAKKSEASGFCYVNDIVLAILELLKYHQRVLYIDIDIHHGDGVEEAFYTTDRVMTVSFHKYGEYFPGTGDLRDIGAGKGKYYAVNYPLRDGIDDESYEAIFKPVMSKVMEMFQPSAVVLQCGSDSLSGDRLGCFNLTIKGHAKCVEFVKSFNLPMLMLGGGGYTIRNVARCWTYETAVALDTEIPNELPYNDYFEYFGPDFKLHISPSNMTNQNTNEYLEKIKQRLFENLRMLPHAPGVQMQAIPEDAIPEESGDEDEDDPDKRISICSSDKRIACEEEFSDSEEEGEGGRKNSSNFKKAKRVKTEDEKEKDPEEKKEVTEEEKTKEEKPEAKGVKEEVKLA
# UniProt Q9P2D3: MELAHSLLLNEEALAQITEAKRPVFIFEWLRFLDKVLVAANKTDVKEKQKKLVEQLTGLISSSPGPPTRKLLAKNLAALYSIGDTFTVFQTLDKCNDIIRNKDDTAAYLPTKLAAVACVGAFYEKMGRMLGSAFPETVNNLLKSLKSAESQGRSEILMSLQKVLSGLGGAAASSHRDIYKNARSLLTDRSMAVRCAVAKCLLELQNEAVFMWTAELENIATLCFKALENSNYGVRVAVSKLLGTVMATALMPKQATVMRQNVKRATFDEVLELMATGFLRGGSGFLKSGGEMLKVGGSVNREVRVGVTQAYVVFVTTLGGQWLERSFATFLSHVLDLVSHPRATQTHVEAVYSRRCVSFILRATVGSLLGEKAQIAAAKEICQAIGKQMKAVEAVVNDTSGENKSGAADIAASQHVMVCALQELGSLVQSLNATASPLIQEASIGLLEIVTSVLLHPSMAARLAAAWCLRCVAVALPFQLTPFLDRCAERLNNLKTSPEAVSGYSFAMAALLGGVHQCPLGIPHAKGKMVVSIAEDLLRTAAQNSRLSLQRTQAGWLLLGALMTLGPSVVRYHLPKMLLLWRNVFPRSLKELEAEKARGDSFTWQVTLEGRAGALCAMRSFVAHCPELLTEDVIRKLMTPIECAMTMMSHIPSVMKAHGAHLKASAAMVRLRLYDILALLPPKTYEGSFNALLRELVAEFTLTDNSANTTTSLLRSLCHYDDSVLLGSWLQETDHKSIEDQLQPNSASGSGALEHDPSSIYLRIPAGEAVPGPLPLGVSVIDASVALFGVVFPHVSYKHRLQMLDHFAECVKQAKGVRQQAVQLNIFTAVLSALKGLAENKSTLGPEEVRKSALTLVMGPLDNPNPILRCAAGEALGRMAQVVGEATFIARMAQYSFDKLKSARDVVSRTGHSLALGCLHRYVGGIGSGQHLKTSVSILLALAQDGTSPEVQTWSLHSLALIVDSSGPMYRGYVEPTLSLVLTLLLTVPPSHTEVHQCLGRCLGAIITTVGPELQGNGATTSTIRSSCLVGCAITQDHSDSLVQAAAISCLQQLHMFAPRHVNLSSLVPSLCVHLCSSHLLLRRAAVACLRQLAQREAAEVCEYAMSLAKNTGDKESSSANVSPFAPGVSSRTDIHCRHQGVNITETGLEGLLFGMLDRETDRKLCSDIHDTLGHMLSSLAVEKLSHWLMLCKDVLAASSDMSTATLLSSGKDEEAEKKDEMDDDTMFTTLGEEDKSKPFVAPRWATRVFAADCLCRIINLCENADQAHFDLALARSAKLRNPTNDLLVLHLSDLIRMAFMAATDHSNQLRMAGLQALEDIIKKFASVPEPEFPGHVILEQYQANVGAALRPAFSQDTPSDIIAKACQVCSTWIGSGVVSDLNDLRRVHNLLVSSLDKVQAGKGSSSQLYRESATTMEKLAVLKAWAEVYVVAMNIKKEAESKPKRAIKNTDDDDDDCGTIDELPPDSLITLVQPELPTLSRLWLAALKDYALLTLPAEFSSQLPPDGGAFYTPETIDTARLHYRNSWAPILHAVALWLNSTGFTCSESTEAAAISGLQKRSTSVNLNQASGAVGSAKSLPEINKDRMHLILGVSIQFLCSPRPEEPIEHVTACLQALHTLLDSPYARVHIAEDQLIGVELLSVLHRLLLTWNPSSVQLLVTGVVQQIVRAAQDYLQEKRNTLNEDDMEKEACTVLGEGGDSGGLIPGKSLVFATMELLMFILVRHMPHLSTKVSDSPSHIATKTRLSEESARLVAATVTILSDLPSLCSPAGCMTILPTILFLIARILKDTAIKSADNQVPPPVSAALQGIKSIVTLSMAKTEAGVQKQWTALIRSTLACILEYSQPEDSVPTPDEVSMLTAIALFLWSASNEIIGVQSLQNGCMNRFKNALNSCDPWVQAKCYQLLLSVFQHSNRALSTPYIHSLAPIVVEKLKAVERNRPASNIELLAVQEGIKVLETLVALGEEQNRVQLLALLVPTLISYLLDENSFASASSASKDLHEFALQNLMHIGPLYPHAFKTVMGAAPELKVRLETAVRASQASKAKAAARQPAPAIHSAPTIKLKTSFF
# UniProt P06865: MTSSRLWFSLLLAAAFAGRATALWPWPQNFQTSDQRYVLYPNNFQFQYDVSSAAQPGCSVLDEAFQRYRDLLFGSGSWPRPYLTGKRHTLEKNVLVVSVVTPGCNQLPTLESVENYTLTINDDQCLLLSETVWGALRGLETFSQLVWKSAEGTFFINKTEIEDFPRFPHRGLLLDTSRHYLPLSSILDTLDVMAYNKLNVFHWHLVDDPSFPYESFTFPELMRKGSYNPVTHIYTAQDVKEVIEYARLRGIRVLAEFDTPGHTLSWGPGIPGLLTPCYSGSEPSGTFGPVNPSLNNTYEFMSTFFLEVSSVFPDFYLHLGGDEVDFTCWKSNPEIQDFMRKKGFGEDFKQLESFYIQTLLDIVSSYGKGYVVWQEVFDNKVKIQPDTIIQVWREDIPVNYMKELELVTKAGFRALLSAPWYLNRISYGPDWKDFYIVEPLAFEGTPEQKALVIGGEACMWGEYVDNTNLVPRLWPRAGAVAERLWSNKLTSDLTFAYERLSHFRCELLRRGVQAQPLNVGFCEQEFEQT
# UniProt Q9ULT8: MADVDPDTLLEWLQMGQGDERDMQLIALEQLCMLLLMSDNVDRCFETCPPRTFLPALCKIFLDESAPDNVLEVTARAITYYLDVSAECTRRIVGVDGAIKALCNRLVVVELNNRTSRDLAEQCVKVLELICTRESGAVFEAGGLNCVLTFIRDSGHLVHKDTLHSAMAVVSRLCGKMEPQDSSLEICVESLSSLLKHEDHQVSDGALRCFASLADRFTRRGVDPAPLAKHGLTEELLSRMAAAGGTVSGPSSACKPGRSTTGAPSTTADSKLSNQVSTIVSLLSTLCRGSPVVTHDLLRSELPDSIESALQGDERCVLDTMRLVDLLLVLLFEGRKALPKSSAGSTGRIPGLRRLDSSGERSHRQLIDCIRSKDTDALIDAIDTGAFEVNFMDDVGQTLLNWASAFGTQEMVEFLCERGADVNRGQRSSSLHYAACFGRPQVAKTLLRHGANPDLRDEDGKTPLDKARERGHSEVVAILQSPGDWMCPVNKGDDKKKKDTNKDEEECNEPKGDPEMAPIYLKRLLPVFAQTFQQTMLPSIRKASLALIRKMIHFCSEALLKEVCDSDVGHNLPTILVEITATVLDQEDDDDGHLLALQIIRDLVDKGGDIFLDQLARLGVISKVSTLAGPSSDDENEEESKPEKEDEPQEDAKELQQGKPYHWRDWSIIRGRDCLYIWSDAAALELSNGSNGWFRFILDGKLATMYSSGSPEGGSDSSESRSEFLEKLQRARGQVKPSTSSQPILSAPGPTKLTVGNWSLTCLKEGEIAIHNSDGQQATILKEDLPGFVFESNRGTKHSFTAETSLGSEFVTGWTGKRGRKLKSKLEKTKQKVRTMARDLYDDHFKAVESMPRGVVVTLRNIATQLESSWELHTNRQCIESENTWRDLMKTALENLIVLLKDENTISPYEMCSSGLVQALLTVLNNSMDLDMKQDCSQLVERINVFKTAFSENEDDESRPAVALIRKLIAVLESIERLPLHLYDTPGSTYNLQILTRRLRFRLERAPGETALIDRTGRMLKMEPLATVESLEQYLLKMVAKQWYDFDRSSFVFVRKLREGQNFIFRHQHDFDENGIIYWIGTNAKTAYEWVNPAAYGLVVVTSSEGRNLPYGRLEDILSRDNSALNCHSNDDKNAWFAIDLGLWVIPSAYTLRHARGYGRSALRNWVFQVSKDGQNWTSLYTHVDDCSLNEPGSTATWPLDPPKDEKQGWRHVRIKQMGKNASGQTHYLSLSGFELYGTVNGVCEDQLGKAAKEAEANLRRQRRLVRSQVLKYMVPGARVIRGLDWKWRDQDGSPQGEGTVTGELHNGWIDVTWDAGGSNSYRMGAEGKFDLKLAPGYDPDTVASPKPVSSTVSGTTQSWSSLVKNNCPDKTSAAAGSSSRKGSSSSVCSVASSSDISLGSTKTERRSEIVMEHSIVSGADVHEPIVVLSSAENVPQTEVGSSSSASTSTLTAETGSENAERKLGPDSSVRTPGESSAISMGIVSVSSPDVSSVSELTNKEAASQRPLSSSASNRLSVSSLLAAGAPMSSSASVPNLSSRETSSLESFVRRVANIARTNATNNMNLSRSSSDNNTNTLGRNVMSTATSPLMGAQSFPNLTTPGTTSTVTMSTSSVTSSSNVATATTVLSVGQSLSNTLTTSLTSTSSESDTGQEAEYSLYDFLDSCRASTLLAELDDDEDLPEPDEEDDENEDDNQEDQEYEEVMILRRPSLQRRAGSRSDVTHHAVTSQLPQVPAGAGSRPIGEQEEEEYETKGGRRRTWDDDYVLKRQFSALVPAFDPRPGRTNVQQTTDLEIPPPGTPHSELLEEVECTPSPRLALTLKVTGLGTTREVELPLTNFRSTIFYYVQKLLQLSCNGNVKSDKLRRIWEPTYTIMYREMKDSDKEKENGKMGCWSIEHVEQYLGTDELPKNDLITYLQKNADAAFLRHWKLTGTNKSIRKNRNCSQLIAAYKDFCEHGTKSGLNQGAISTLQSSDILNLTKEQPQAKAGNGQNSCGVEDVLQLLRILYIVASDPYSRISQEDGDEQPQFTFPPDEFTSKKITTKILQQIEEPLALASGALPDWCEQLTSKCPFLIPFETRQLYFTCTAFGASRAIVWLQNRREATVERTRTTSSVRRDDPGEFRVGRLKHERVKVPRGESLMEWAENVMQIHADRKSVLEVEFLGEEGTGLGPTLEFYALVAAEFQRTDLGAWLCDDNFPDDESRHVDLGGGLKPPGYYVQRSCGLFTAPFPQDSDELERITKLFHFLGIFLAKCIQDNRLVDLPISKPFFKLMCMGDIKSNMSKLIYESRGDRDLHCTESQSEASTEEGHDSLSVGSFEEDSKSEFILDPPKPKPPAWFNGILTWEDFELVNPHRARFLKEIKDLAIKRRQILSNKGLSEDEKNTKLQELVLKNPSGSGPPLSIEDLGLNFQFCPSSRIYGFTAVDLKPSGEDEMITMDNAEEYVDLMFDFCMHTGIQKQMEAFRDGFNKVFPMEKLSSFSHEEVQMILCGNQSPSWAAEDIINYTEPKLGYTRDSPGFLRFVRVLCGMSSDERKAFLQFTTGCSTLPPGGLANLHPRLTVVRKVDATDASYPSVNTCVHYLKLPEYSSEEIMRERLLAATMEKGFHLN
# The list shows a part of the results. Residues, ends and D or L forms follow the SMILES beside them. *: point of attachment. Cbz = O=C(OCc1ccccc1)*
# Columns and labels:
# Experiment in all cases: log2 fold change, soluble protein after heating vs DMSO (PISA); higher = thermal stabilisation; K562 cells, 10 uM, 30 min; active = over 0.2 and 3.5 SD of the protein, either way, in both replicates (recomputed)
# IRAK-1-4 Inhibitor I = compound: C1COCCN1CCN2C3=CC=CC=C3N=C2NC(=O)C4=CC(=CC=C4)[N+](=O)[O-] [IRAK-1-4 Inhibitor I]
# Procedure, shortened: (§1)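 K562 cells at 2×10^6 cells/mL were exposed to 10 μM compound for 30 min, then aliquots were heated for 3 min across 48°C-58°C, pooled, and extracted in PBS containing 0.5% NP-40 at 4°C. The supernatant after 21,000xg for 90 min was taken as soluble protein and measured by TMTpro 16plex LC-MS/MS with channel sums equalised. Thermal stability is reported relative to control samples, with values from duplicates. Fold changes are given on a log2 scale.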
# ibrutinib = compound: C=CC(=O)N1CCC[C@@H](n2nc(-c3ccc(Oc4ccccc4)cc3)c3c(N)ncnc32)C1 [ibrutinib]
# Procedure, shortened: as §1
# [1] = compound: CC(=O)c1cnc2ccc(-c3cc(Cl)c(O)c(Cl)c3)nc2c1N[C@H]1CC[C@H](CN(C)C)CC1
# Procedure, shortened: as §1
# ralimetinib = compound: CC(C)(C)Cn1c(N)nc2ccc(-c3[nH]c(C(C)(C)C)nc3-c3ccc(F)cc3)nc21 [ralimetinib]
# Procedure, shortened: as §1
# [2] = compound: CC(C)(O)CC(=O)NCCn1ccc2ncnc(Nc3ccc(Oc4cccc(C(F)(F)F)c4)c(Cl)c3)c21
# Procedure, shortened: as §1
# [3] = compound: CC(C)C1=C2N=C(C=C(N2N=C1)NCC3=CC=CC=C3)NCCCCCCN
# Procedure, shortened: as §1
# [4] = compound: CC(C)C[C@@H](C=O)NC(=O)[C@H](CC(C)C)NC(=O)[C@H](CC(C)C)NC(=O)OCc1ccccc1
# Procedure, shortened: as §1
# pinometostat = compound: CC(C)N(C[C@H]1O[C@@H](n2cnc3c(N)ncnc32)[C@H](O)[C@@H]1O)[C@H]1C[C@@H](CCc2nc3cc(C(C)(C)C)ccc3[nH]2)C1 [pinometostat]
# Procedure, shortened: as §1
# [5] = compound: CC1=C(C2=C(C=C1)C(=O)C3=CC=CC=C3N2CCCN)C
# Procedure, shortened: as §1
# [6] = compound: CC1=C(C(CC(=O)N1)C2=CC=C(C=C2)C(F)(F)F)C(=O)NC3=C(C=C4C(=C3)C=NN4)F
# Procedure, shortened: as §1
Target,log2 fold change (IRAK-1-4 Inhibitor I),log2 fold change (ibrutinib),log2 fold change [1],log2 fold change (ralimetinib),log2 fold change [2],log2 fold change [3],log2 fold change [4],log2 fold change (pinometostat),log2 fold change [5],log2 fold change [6]
HBQ1 (UniProt P09105),inactive: 0.003,inactive: 0.016,inactive: 0.01,inactive: -0.034,inactive: -0.078,inactive: 0.095,inactive: -0.102,inactive: 0.004,inactive: 0.147,
GTF3C6 (UniProt Q969F1),inactive: 0.054,inactive: -0.013,,,inactive: -0.017,,,inactive: 0.067,inactive: -0.102,inactive: 0.111
GSTO1 (UniProt P78417),inactive: 0.073,inactive: -0.029,inactive: 0.006,inactive: 0.021,inactive: -0.029,inactive: 0.066,inactive: -0.045,inactive: -0.047,inactive: 0.021,
GTF2E1 (UniProt P29083),inactive: -0.048,inactive: -0.06,inactive: -0.051,inactive: -0.018,inactive: -0.178,inactive: -0.147,inactive: 0.016,inactive: -0.046,inactive: -0.007,
HDAC6 (UniProt Q9UBN7),inactive: -0.086,inactive: 0.314,inactive: -0.03,inactive: 0.034,inactive: -0.023,inactive: 0.069,inactive: -0.025,inactive: 0.009,inactive: 0.021,
HERPUD2 (UniProt Q9BSE4),inactive: 0.107,inactive: -0.071,inactive: -0.109,inactive: 0.024,,inactive: 0.021,inactive: 0.254,inactive: -0.037,,
GSK3B isoform 2 (UniProt P49841),inactive: 0.017,inactive: 0.019,inactive: 0.144,inactive: -0.005,inactive: -0.07,inactive: 0.004,inactive: -0.031,inactive: -0.022,inactive: -0.017,
HAGHL (UniProt Q6PII5),inactive: 0.059,inactive: -0.074,,inactive: 0.115,inactive: -0.041,inactive: 0.009,inactive: 0.06,inactive: 0.02,inactive: -0.079,
GUSB (UniProt P08236),inactive: 0.037,inactive: -0.016,inactive: -0.075,inactive: -0.013,inactive: 0.011,inactive: 0.025,inactive: -0.005,inactive: -0.032,inactive: -0.077,
HAX1 (UniProt O00165),inactive: -0.017,inactive: -0.036,inactive: -0.07,inactive: 0.026,inactive: -0.156,active: -0.498,inactive: 0.045,inactive: 0.107,inactive: 0.065,
HDAC7 isoform 5 (UniProt Q8WUI4),inactive: 0.094,inactive: -0.007,active: -0.561,inactive: -0.123,inactive: -0.031,inactive: 0.108,inactive: 0.036,inactive: 0.035,inactive: 0.065,
H1FX (UniProt Q92522),inactive: -0.171,inactive: 0.077,inactive: 0.231,inactive: 0.204,inactive: 0.031,inactive: 0.13,inactive: 0.09,inactive: 0.246,active: -0.718,
HDAC1 (UniProt Q13547),inactive: -0.033,inactive: -0.052,inactive: 0.056,inactive: 0.02,inactive: -0.021,inactive: -0.009,inactive: -0.067,inactive: 0.03,inactive: 0.023,
GTF3A (UniProt Q92664),inactive: 0.034,inactive: -0.013,inactive: 0.065,,inactive: -0.084,inactive: -0.036,,inactive: 0.004,inactive: 0.107,
GSTT1 (UniProt P30711),inactive: -0.054,inactive: 0.007,inactive: 0.009,inactive: -0.079,inactive: -0.079,inactive: 0.076,inactive: -0.005,inactive: -0.124,inactive: 0.157,
H2AFX (UniProt P16104),inactive: -0.049,inactive: 0.077,inactive: 0.044,inactive: 0.193,inactive: 0.036,inactive: -0.008,inactive: 0.308,inactive: 0.368,active: 1.02,
GSKIP (UniProt Q9P0R6),inactive: 0.008,inactive: 0,inactive: 0.225,inactive: -0.081,,inactive: -0.043,inactive: -0.074,inactive: 0.004,inactive: 0.221,inactive: 0.043
HEATR3 (UniProt Q7Z4Q2),inactive: -0.08,inactive: 0.006,,inactive: 0.07,inactive: -0.125,active: -0.319,inactive: -0.137,inactive: -0.032,inactive: -0.196,
HEATR5B (UniProt Q9P2D3),inactive: -0.002,inactive: 0.017,inactive: 0.014,inactive: 0.04,inactive: -0.021,inactive: -0.063,inactive: 0.023,inactive: 0.008,inactive: 0.01,
HEXA (UniProt P06865),inactive: 0.013,inactive: 0.004,inactive: 0.018,inactive: -0.062,inactive: 0.024,inactive: -0.179,inactive: 0.032,inactive: -0.043,inactive: -0.05,
HDAC2 (UniProt Q92769),inactive: 0,inactive: -0.015,inactive: -0.046,inactive: -0.004,inactive: 0.01,inactive: 0.007,inactive: -0.04,inactive: -0.01,inactive: 0,
GSTM5 (UniProt P46439),inactive: -0.05,inactive: -0.058,inactive: -0.001,,inactive: -0.005,inactive: -0.071,,inactive: -0.028,inactive: 0.241,inactive: 0.177
H2AFY (UniProt O75367),inactive: -0.181,inactive: -0.003,,inactive: 0.097,inactive: -0.148,inactive: -0.019,inactive: 0.086,inactive: 0.196,inactive: 0.211,inactive: -0.045
HEXB (UniProt P07686),inactive: 0.06,inactive: 0.004,inactive: 0.003,inactive: -0.068,inactive: -0.004,inactive: -0.14,inactive: 0.003,inactive: -0.025,inactive: -0.03,
GYS1 (UniProt P13807),inactive: -0.151,inactive: 0.009,active: -0.976,inactive: 0.095,inactive: 0.158,inactive: -0.253,inactive: 0.141,inactive: 0.412,inactive: 0.046,
HECTD1 (UniProt Q9ULT8),inactive: -0.076,inactive: -0.027,inactive: 0.001,inactive: 0.054,inactive: -0.048,inactive: -0.091,inactive: 0.141,inactive: 0.079,inactive: -0.158,
HGFAC (UniProt Q04756),inactive: -0.065,inactive: 0.148,,,inactive: 0.226,inactive: 0.068,,inactive: 0.081,inactive: -0.173,inactive: -0.173
GSR (UniProt P00390),inactive: 0.037,inactive: -0.005,inactive: -0.011,inactive: -0.021,inactive: -0.015,inactive: 0.082,inactive: 0.023,inactive: -0.05,inactive: -0.003,
HEXIM2 (UniProt Q96MH2),inactive: -0.039,,,,inactive: 0.148,,,inactive: -0.092,,
GSPT1 isoform 2 (UniProt P15170),,,,,,,,,,inactive: -0.14

# Reformatted: entries from further up
Target	log2 fold change (IRAK-1-4 Inhibitor I)	log2 fold change (ibrutinib)	log2 fold change [1]	log2 fold change (ralimetinib)	log2 fold change [2]	log2 fold change [3]	log2 fold change [4]	log2 fold change (pinometostat)	log2 fold change [5]	log2 fold change [6]
HAGHL (UniProt Q6PII5)	inactive: 0.059	inactive: -0.074		inactive: 0.115	inactive: -0.041	inactive: 0.009	inactive: 0.06	inactive: 0.02	inactive: -0.079	
HDAC2 (UniProt Q92769)	inactive: 0	inactive: -0.015	inactive: -0.046	inactive: -0.004	inactive: 0.01	inactive: 0.007	inactive: -0.04	inactive: -0.01	inactive: 0	
